Results from PMC11895698.
No constants are given. Whether binding was seen depends on the method and setting. Binding seen in cells or lysates may run through a third protein. Some binding calls cover weakened binding; strength is not graded here. Sequences can lack the tags named with a protein.

Sequences of proteins named here, by UniProt entry; tags and fusion partners are left off.
UniProt Q9BR76: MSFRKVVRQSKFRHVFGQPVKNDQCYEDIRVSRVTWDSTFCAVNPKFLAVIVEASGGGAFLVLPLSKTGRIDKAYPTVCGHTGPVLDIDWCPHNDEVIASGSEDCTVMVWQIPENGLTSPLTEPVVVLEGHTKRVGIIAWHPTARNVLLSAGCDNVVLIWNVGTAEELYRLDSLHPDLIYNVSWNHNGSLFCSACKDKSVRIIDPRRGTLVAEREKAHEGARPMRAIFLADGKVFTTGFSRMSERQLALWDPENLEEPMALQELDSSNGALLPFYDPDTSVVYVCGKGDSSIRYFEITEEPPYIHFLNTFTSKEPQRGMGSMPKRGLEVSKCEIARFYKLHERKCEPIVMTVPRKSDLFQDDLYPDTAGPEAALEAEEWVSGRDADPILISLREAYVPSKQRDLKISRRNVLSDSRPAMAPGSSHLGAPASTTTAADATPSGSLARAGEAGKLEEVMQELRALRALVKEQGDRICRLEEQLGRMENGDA
UniProt Q9ULV4: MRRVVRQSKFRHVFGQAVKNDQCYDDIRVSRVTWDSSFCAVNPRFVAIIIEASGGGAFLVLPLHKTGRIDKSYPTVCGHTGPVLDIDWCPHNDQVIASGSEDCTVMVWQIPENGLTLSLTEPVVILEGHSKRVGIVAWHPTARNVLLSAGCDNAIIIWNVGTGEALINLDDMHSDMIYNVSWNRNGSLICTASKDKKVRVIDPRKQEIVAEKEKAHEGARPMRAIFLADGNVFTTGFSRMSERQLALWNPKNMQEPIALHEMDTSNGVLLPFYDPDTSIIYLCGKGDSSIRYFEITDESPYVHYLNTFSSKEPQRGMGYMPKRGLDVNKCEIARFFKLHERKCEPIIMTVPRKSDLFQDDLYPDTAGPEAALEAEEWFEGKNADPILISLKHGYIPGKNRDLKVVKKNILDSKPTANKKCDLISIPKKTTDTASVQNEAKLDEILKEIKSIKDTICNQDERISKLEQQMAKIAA

T1: Myc-USP45 (human) (UniProt Q70EL2)
T1 sequence: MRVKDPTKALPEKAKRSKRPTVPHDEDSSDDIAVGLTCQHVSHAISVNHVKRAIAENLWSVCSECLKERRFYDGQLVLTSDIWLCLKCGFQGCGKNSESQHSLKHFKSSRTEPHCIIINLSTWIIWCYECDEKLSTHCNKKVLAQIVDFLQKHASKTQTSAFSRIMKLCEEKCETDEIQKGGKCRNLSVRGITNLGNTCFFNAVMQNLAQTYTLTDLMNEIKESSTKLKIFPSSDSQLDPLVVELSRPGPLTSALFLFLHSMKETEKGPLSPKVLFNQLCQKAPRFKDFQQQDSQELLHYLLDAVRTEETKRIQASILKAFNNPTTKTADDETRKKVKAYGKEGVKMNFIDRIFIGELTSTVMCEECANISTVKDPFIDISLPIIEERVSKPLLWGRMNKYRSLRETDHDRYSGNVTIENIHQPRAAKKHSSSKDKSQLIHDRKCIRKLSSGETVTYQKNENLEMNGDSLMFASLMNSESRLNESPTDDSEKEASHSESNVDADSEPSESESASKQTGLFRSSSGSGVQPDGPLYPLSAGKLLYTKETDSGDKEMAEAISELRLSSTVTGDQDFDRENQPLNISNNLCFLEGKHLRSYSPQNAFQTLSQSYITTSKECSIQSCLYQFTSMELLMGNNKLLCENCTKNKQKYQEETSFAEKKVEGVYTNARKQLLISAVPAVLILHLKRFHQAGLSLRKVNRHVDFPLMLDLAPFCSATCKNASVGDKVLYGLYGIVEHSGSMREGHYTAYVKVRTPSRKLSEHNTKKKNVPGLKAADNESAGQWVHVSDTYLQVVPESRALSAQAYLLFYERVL


Experiments:
Myc-USP45 (human) = target: T1, Myc-USP45 (human); test: co-IP; HEK293T cells expressing Myc-USP45 and Flag-Coro1B or Flag-Coro1C; IP with anti-Myc antibody and protein G-Sepharose, Western blot; lysis buffer 50 mM Tris-HCl pH 7.4, 150 mM NaCl, 1 mM EDTA, 10% glycerol, 1% Triton X-100
Flag-Coro1B = Flag-Coro1B (UniProt Q9BR76); test: co-IP; IP of Flag-Coro1B with Flag antibody, Western blot for Myc-USP45 or endogenous USP45; lysis buffer 50 mM Tris-HCl pH 7.4, 150 mM NaCl, 1 mM EDTA, 10% glycerol, 1% Triton X-100

binding (Myc-USP45 (human))	binding (Flag-Coro1B)	Molecule
binds		Flag-Coro1B (from UniProt Q9BR76 1-489)
no binding		Flag-Coro1C (from UniProt Q9ULV4 1-474)
	binds	Myc-USP45 (enzyme, UniProt Q70EL2 1-814) MRVKDPTKALPEKAKRSKRPTVPHDEDSSDDIAVGLTCQHVSHAISVNHVKRAIAENLWSVCSECLKERRFYDGQLVLTSDIWLCLKCGFQGCGKNSESQHSLKHFKSSRTEPHCIIINLSTWIIWCYECDEKLSTHCNKKVLAQIVDFLQKHASKTQTSAFSRIMKLCEEKCETDEIQKGGKCRNLSVRGITNLGNTCFFNAVMQNLAQTYTLTDLMNEIKESSTKLKIFPSSDSQLDPLVVELSRPGPLTSALFLFLHSMKETEKGPLSPKVLFNQLCQKAPRFKDFQQQDSQELLHYLLDAVRTEETKRIQASILKAFNNPTTKTADDETRKKVKAYGKEGVKMNFIDRIFIGELTSTVMCEECANISTVKDPFIDISLPIIEERVSKPLLWGRMNKYRSLRETDHDRYSGNVTIENIHQPRAAKKHSSSKDKSQLIHDRKCIRKLSSGETVTYQKNENLEMNGDSLMFASLMNSESRLNESPTDDSEKEASHSESNVDADSEPSESESASKQTGLFRSSSGSGVQPDGPLYPLSAGKLLYTKETDSGDKEMAEAISELRLSSTVTGDQDFDRENQPLNISNNLCFLEGKHLRSYSPQNAFQTLSQSYITTSKECSIQSCLYQFTSMELLMGNNKLLCENCTKNKQKYQEETSFAEKKVEGVYTNARKQLLISAVPAVLILHLKRFHQAGLSLRKVNRHVDFPLMLDLAPFCSATCKNASVGDKVLYGLYGIVEHSGSMREGHYTAYVKVRTPSRKLSEHNTKKKNVPGLKAADNESAGQWVHVSDTYLQVVPESRALSAQAYLLFYERVL
	binds	endogenous USP45 (enzyme, UniProt Q70EL2 1-814) MRVKDPTKALPEKAKRSKRPTVPHDEDSSDDIAVGLTCQHVSHAISVNHVKRAIAENLWSVCSECLKERRFYDGQLVLTSDIWLCLKCGFQGCGKNSESQHSLKHFKSSRTEPHCIIINLSTWIIWCYECDEKLSTHCNKKVLAQIVDFLQKHASKTQTSAFSRIMKLCEEKCETDEIQKGGKCRNLSVRGITNLGNTCFFNAVMQNLAQTYTLTDLMNEIKESSTKLKIFPSSDSQLDPLVVELSRPGPLTSALFLFLHSMKETEKGPLSPKVLFNQLCQKAPRFKDFQQQDSQELLHYLLDAVRTEETKRIQASILKAFNNPTTKTADDETRKKVKAYGKEGVKMNFIDRIFIGELTSTVMCEECANISTVKDPFIDISLPIIEERVSKPLLWGRMNKYRSLRETDHDRYSGNVTIENIHQPRAAKKHSSSKDKSQLIHDRKCIRKLSSGETVTYQKNENLEMNGDSLMFASLMNSESRLNESPTDDSEKEASHSESNVDADSEPSESESASKQTGLFRSSSGSGVQPDGPLYPLSAGKLLYTKETDSGDKEMAEAISELRLSSTVTGDQDFDRENQPLNISNNLCFLEGKHLRSYSPQNAFQTLSQSYITTSKECSIQSCLYQFTSMELLMGNNKLLCENCTKNKQKYQEETSFAEKKVEGVYTNARKQLLISAVPAVLILHLKRFHQAGLSLRKVNRHVDFPLMLDLAPFCSATCKNASVGDKVLYGLYGIVEHSGSMREGHYTAYVKVRTPSRKLSEHNTKKKNVPGLKAADNESAGQWVHVSDTYLQVVPESRALSAQAYLLFYERVL
